Consider seven molecules from doi:10.1101/2023.03.05.531181.

Protein sequences, listed by entry. Tags and fused reporters are not part of them. Lines headed by an entry give the natural chain unless they say otherwise; changes in a name come on top.
UniProt P31751, whole entry: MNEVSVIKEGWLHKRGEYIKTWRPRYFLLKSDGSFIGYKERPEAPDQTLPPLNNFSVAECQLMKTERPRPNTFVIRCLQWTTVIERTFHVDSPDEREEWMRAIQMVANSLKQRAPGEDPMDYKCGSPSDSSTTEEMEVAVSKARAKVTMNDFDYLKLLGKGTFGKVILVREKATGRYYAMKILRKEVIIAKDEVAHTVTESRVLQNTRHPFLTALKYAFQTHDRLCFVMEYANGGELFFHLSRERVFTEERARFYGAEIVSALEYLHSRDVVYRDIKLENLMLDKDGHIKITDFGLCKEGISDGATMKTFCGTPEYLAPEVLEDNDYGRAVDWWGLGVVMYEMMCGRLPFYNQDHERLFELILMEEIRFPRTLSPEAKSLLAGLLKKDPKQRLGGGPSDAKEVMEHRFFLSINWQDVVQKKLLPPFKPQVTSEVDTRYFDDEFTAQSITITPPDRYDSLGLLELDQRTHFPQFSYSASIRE
UniProt P31749, whole entry: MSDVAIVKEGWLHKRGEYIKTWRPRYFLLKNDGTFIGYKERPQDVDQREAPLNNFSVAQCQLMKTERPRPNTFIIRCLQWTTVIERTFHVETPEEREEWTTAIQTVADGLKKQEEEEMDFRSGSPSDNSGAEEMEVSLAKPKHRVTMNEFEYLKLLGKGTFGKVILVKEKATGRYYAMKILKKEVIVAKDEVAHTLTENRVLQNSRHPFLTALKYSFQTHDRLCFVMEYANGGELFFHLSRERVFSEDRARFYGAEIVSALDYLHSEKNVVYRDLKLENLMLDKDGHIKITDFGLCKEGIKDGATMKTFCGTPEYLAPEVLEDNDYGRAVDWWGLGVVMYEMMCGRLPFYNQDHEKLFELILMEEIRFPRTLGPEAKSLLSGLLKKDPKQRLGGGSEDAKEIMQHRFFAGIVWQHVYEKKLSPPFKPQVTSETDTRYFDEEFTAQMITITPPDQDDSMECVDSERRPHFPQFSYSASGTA

One assay addresses T1, V5-FBP1^E98A (human) (UniProt P09467).
T1 sequence: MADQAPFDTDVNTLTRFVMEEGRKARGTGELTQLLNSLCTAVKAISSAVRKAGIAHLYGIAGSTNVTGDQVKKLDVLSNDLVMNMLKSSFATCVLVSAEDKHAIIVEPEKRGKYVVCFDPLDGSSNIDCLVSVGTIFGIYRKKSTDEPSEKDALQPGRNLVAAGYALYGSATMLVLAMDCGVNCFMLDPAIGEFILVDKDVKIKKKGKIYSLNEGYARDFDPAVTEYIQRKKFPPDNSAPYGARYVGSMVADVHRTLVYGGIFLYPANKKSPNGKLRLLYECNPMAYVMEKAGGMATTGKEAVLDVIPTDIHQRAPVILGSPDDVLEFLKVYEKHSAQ
Description: co-IP.

The target of the next assay is T2, V5-FBP1 (human) (UniProt P09467).
T2 sequence: T1 sequence with A98E
Description: co-IP.

In another assay the target is T3, Flag-ALDOB (UniProt P05062).
T3 sequence: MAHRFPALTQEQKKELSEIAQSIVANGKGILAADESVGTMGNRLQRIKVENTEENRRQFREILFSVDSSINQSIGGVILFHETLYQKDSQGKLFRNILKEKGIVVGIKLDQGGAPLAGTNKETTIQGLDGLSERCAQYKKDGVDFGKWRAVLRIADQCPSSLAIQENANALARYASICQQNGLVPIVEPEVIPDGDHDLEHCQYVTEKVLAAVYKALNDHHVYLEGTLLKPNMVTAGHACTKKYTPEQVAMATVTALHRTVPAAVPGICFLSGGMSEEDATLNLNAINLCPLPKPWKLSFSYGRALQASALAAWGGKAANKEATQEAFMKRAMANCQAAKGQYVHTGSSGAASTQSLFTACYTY
In words: co-IP.

For a further assay, the target named is T4, V5-FBP1^L329P (human) (UniProt P09467).
T4 sequence: T1 sequence with A98E, L329P
Description: co-IP.

For the next assay, the target named is T5, His-FBP1 (UniProt P09467).
T5 sequence: T1 sequence with A98E
Description: pull-down.

Assay [1] concerns the target T6, FBP1 (mouse liver) (mouse (endogenous in liver)) (UniProt Q9QXD6).
T6 sequence: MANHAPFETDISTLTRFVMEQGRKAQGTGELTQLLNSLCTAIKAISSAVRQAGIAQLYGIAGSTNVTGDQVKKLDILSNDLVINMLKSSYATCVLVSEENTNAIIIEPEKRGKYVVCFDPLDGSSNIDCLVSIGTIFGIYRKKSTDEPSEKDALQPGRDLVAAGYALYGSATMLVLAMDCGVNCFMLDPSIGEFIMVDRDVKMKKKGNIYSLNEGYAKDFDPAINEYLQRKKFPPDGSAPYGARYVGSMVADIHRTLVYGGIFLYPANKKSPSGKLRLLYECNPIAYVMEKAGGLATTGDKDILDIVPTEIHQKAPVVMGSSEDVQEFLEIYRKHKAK
In words: proximity ligation.

In assay [2] the target is T6, FBP1 (mouse liver) (mouse (endogenous in liver)). In words: SEC. Background: In gel filtration, larger molecules generally elute earlier.

Positions count from the first letter of the chain named. Results are given in words; binding and its absence hold for the method and conditions named. For some of these results: Binding seen in cells or lysates may run through a third protein. Some results given as binding are weak or reduced against the parent protein; the word gives no strength. For some of these results: Sequences can lack the tags named with a protein.

In the case of “AKT2 (from UniProt P31751 1-481) (enzyme)”, the binding result in the assay with V5-FBP1^E98A (human) and in the assay with V5-FBP1 (human) was “binds” each time.

As for “AKT1 (from UniProt P31749 1-480) (enzyme)”, the binding entry with V5-FBP1^E98A (human) and with V5-FBP1 (human) was “binds” in each case.

For the molecule “endogenous AKT1 (from UniProt P31749 1-480) (enzyme)”, the binding entry with Flag-ALDOB is reported as “binds”.

B1: ALDOB (enzyme, UniProt P05062 1-364)
chain: T3 sequence
Turning to B1, the binding entry with V5-FBP1^E98A (human) and in the assay with V5-FBP1 (human) was “binds” throughout.

B2: ALDOB (Huh7 cells) (enzyme, UniProt P05062 1-364)
chain: T3 sequence
B2: the binding result in the assay with V5-FBP1^E98A (human) was “binds”; with V5-FBP1 (human) it was “binds”; with V5-FBP1^L329P (human), “no binding”.

B3: His-ALDOB (enzyme, UniProt P05062 1-364)
chain: T3 sequence
For B3, the binding result in the assay with His-FBP1 is reported as “binds”.

B4: ALDOB (mouse liver) (enzyme, UniProt Q91Y97 1-364)
chain: MAHRFPALTPEQKKELSEIAQRIVANGKGILAADESVGTMGNRLQRIKVENTEENRRQFRELLFSVDNSISQSIGGVILFHETLYQKDSQGNLFRNVLKEKGIVVGIKLDQGGAPLAGTNKETTIQGLDGLSERCAQYKKDGVDFGKWRAVLRIADQCPSSLAIQENANALARYASICQQNGLVPIVEPEVLPDGDHDLEHCQYVSEKVLAAVYKALNDHHVYLEGTLLKPNMVTAGHACTKKYTPEQVAMATVTALHRTVPAAVPGICFLSGGMSEEDATLNLNAINRCPLPRPWKLSFSYGRALQASALAAWGGKAANKKATQEAFMKRAMANCQAAQGQYVHTGSSGAAATQSLFTASYTY
As to B4, the binding result in assay [1] and in assay [2] was “binds” throughout.
